The values that follow come from patent US20230128688A1, “DIRECTED CONJUGATION TECHNOLOGIES” (KLEO PHARMACEUTICALS, INC., priority 2019, published 2023).

In data set [1] the test system is daratumumab. The data set is described as follows: Peptide mapping / mass spectrometry of conjugation sites. It counts as biochemical. As to conditions: MS.
Data set [2] deals with daratumumab. Description: Conjugation of reagent to daratumumab, DAR measured by FITC absorbance. As to conditions: 2.5 M eq of reagent, phosphate buffer saline pH 7.4, 4 h at 25° C.
Data set [3] relates to Denosumab (IgG2). The data set is described as follows: Peptide mapping of conjugation sites, IgG2 antibody. It counts as biochemical. As to conditions: borate buffer pH 8.2, 2.5 M eq, 20 h, 25 C.
For data set [4], the system named is Nivolumab (IgG4). Description: Peptide mapping of conjugation sites, IgG4 antibody. It counts as biochemical. As to conditions: borate buffer pH 8.2, 2.5 M eq, 20 h, 25 C.

“Also recorded” adds a separate entry of the source. Non-standard residues stand in square brackets, D forms with d. Residues, ends and D or L forms follow the SMILES beside them. *: point of attachment. X2 = O=C(CCOCCOCCOCCOCCOCCOCCNC(=S)Nc1ccc2c(c1)C(=O)OC21c2ccc(O)cc2Oc2cc(O)ccc21)Oc1c(F)cc(CN*)cc1F; PEG4 = NCCOCCOCCOCCOCCC(=O)O

On to `CC(=O)NCc1ccc(OC(=O)CCOCCOCCOCCOCCOCCOCCNC(=S)Nc2ccc3c(c2)C(=O)OC32c3ccc(O)cc3Oc3cc(O)ccc32)c(F)c1` [Compound I-10], for which, in data set [1], the “conjugation site / selectivity” value is given as “non-specific conjugation”. In addition, the “DAR (Drug to antibody ratio; Drug is FITC)” value in data set [2] is on record as 0.07.

`CC(=O)N[C@@H](CC(=O)O)C(=O)N[C@H]1CSSC[C@@H](C(=O)N[C@H](C(=O)O)[C@@H](C)O)NC(=O)[C@H](Cc2c[nH]c3ccccc23)NC(=O)[C@H](C(C)C)NC(=O)[C@H](CC(C)C)NC(=O)[C@H](CCC(=O)O)NC(=O)CNC(=O)[C@H](CC(C)C)NC(=O)[C@H](CC(=O)NCc2ccc(OC(=O)CCOCCOCCOCCOCCOCCOCCOCCOCCNC(=S)Nc3ccc4c(c3)C(=O)OC43c4ccc(O)cc4Oc4cc(O)ccc43)c(F)c2)NC(=O)[C@H](Cc2c[nH]c3ccccc23)NC(=O)[C@H](C)NC1=O` [Compound I-44]: the “conjugation site / selectivity” value in data set [3] was “specific conjugation”; in data set [3] (listed as 1-44) it was “residue 251 and/or 253 of a heavy chain of IgG2”; in data set [4], “efficient and specific conjugation”; in data set [4] (listed as 1-44), “residue 239 and/or 241 of a heavy chain of IgG2”; in data set [1] it was “K246 and/or K248 of the heavy chain; also recorded: selectively provide conjugation at sites 246 or 248 of heavy chains”. Besides, the “DAR (Drug to antibody ratio; Drug is FITC)” value in data set [2] stood at 0.96.

`CC(=O)NCC(=O)N[C@@H](CO)C(=O)N[C@@H](Cc1ccc(O)cc1)C(=O)N[C@@H](Cc1c[nH]c2ccccc12)C(=O)N[C@@H](Cc1ccc(O)cc1)C(=O)N[C@@H](CC(=O)O)C(=O)N[C@H](C(=O)N[C@@H](Cc1c[nH]c2ccccc12)C(=O)N[C@@H](Cc1ccccc1)C(=O)NCCOCCOCCOCCOCCC(=O)NCc1cc(F)c(OC(=O)CCOCCOCCOCCOCCOCCOCCNC(=S)Nc2ccc3c(c2)C(=O)OC32c3ccc(O)cc3Oc3cc(O)ccc32)c(F)c1)C(C)C` [Compound I-45] (Ac-GSYWYDVWF[PEG4]-X2): the “conjugation site / selectivity” value in data set [1] is “K246/K248 of antibody heavy chains”.

`CC(=O)N[C@@H](CC(=O)O)C(=O)N[C@H]1CSSC[C@@H](C(=O)N[C@H](C(=O)O)[C@@H](C)O)NC(=O)[C@H](Cc2c[nH]c3ccccc23)NC(=O)[C@H](C(C)C)NC(=O)[C@H](CC(C)C)NC(=O)[C@H](CCC(=O)O)NC(=O)CNC(=O)[C@H](CC(C)C)NC(=O)[C@H](CC(=O)NCc2cc(F)c(NS(=O)(=O)C3CCCC=C3C(=O)OCCOCCOCCOCCOCCOCCOCCNC(=S)Nc3ccc4c(c3)C(=O)OC43c4ccc(O)cc4Oc4cc(O)ccc43)c(F)c2)NC(=O)[C@H](Cc2c[nH]c3ccccc23)NC(=O)[C@H](C)NC1=O` (stereo partly drawn) [Compound I-59]: in data set [2], the “DAR (Drug to antibody ratio; Drug is FITC)” value amounted to 0.71.

As for `CC(=O)NCc1cc(F)c(NS(=O)(=O)C2CCCC=C2C(=O)OCCOCCOCCOCCOCCOCCOCCNC(=S)Nc2ccc3c(c2)C(=O)OC32c3ccc(O)cc3Oc3cc(O)ccc32)c(F)c1` (stereo not drawn) [Compound I-60], in data set [2], the “DAR (Drug to antibody ratio; Drug is FITC)” value was found to be 0.23.

Consider `CC(=O)N[C@@H](CC(=O)O)C(=O)N[C@H]1CSSC[C@@H](C(=O)N[C@H](C(=O)O)[C@@H](C)O)NC(=O)[C@H](Cc2c[nH]c3ccccc23)NC(=O)[C@H](C(C)C)NC(=O)[C@H](CC(C)C)NC(=O)[C@H](CCC(=O)O)NC(=O)CNC(=O)[C@H](CC(C)C)NC(=O)[C@H](CCCCNC(=O)OCc2ccc(OC(=O)CCOCCOCCOCCOCCOCCOCCNC(=S)Nc3ccc4c(c3)C(=O)OC43c4ccc(O)cc4Oc4cc(O)ccc43)cc2)NC(=O)[C@H](Cc2c[nH]c3ccccc23)NC(=O)[C@H](C)NC1=O` [Compound I-61], for which the “DAR (Drug to antibody ratio; Drug is FITC)” value in data set [2] amounted to 0.88.

For `CNC(=O)OCc1ccc(OC(=O)CCOCCOCCOCCOCCOCCOCCNC(=S)Nc2ccc3c(c2)C(=O)OC32c3ccc(O)cc3Oc3cc(O)ccc32)cc1` [Compound I-62], in data set [2], the “DAR (Drug to antibody ratio; Drug is FITC)” value is given as 0.05.

For `CC(=O)N[C@@H](CC(=O)O)C(=O)N[C@H]1CSSC[C@@H](C(=O)N[C@H](C(=O)O)[C@@H](C)O)NC(=O)[C@H](Cc2c[nH]c3ccccc23)NC(=O)[C@H](C(C)C)NC(=O)[C@H](CC(C)C)NC(=O)[C@H](CCC(=O)O)NC(=O)CNC(=O)[C@H](CC(C)C)NC(=O)[C@H](CCCCNC(=O)OCc2ccc(NC(=O)CCOCCOCCOCCOCCOCCOCCNC(=S)Nc3ccc4c(c3)C(=O)OC43c4ccc(O)cc4Oc4cc(O)ccc43)cc2)NC(=O)[C@H](Cc2c[nH]c3ccccc23)NC(=O)[C@H](C)NC1=O` [Compound I-63], the “DAR (Drug to antibody ratio; Drug is FITC)” value in data set [2] amounted to 0.81.

Regarding `CNC(=O)OCc1ccc(NC(=O)CCOCCOCCOCCOCCOCCOCCNC(=S)Nc2ccc3c(c2)C(=O)OC32c3ccc(O)cc3Oc3cc(O)ccc32)cc1` [Compound I-64], in data set [2], the “DAR (Drug to antibody ratio; Drug is FITC)” value worked out at 0.13.
